# This is one part of the list.
# Target: T1, OsSMF1 (Oryza sativa, UniProt Q6ZLB0 1-436)
# T1 sequence: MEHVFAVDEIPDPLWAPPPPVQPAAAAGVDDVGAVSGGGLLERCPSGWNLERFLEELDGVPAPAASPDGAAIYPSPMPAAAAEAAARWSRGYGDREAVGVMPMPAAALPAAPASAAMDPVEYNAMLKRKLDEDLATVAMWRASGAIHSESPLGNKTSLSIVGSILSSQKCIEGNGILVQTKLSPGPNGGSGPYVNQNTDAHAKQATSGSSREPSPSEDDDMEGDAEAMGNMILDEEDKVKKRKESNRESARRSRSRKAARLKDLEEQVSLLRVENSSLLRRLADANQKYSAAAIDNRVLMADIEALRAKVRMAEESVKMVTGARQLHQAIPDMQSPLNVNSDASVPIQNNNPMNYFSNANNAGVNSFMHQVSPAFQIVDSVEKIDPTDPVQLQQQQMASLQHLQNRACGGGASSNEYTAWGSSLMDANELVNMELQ
# Assay: protein-binding microarray (RPBM); PBS, 2% BSA, 51.3 ng/ul salmon testes DNA, 50 uM zinc acetate, 200 nM TF, 25 C, 1 h; high values mean tight binding
# Conditions: protein: recombinant; tags: N-terminal polyhistidine and DsRed monomer fusion (pET32a); chain copies: 2; label: CyDye5-dUTP incorporated in the synthesized complementary strand; 3' TTTTT single-stranded linker to array surface; dsDNA, one strand shown
# Method in brief: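 The binding signal for each feature is its fluorescence intensity in arbitrary units. An Axon 4000B scanner was used to read a custom Agilent array that had been made double-stranded with Cy5-dUTP primer extension, blocked with 2% BSA, incubated at 25 °C for 1 h with 200 nM protein in PBS, 2% BSA, salmon testes DNA and 50 µM zinc acetate, and washed. The protein was an N-terminal polyhistidine–DsRed transcription factor fusion from E. coli BL21-CodonPlus, purified on Ni–NTA.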
row,Sequence,binding signal
1,TGGATGTTTCTAGGCGAGAAGCCACCATCATCCTACTAAGCGGAGTCACCTAGTGCAG,3570 fluorescence intensity (a.u.)
2,CACACGCCAACCCGGCCCCACACGTCAGCCACTCCCACTGCGGAGTCACCTAGTGCAG,7300 fluorescence intensity (a.u.)
3,AGCTGATCCGCGTCACGTGGTCCTAGCCGTCGCCGTCGCCCGGAGTCACCTAGTGCAG,11900 fluorescence intensity (a.u.)
4,GCTAACGTAAAACGAAGGATGGTACTTATTACAATTTGCGCGGAGTCACCTAGTGCAG,3400 fluorescence intensity (a.u.)
5,CTGTATACATCGCCCGTGTCTTGTGTGTTTCCTGTCTCGCCGGAGTCACCTAGTGCAG,3300 fluorescence intensity (a.u.)
6,TTAATTAGACTGACATGTGGGGTCCGCGTGGGTCCCACCACGGAGTCACCTAGTGCAG,4150 fluorescence intensity (a.u.)
7,GGTCTTGGTAGCCACCGTGTACGGCCTCTGCGGCATGCAGCGGAGTCACCTAGTGCAG,3770 fluorescence intensity (a.u.)
8,TCCGCCCTTCGCCTCCTCCACCGAGTCAGATCTCGAGCGCCGGAGTCACCTAGTGCAG,3390 fluorescence intensity (a.u.)
9,GGAGGAGGTGGAGTGCGTCGCTGCGGTTAGGGTTTATGGCCGGAGTCACCTAGTGCAG,8730 fluorescence intensity (a.u.)
10,ACAACTTAAAATATTAAAATATTATGAGATGGAGAGTGTACGGAGTCACCTAGTGCAG,3260 fluorescence intensity (a.u.)
11,ACACAGTCACACTGTGCGAGCCTGTGTGGGACTGTGGGTGCGGAGTCACCTAGTGCAG,3390 fluorescence intensity (a.u.)
12,CGGACTTGCCGGAGCTGACCTGGACGACCGACCTCGACGACGGAGTCACCTAGTGCAG,5630 fluorescence intensity (a.u.)
13,TCCCATCGATGATCCTTCGTTGATTCGCGTCAACCTCTCGCGGAGTCACCTAGTGCAG,3220 fluorescence intensity (a.u.)
14,TTCTCCCTCTACTATTGCTGACGCCACCAACGCCCATGTGCGGAGTCACCTAGTGCAG,13500 fluorescence intensity (a.u.)
15,TTTCGCCTCGTCGATTCGTCGAACACCTCGCGAGCTTCCTCGGAGTCACCTAGTGCAG,3380 fluorescence intensity (a.u.)
16,CGGACCAAGTAACTCGTCGTGCCATCAAACCAGGCTACCTCGGAGTCACCTAGTGCAG,3170 fluorescence intensity (a.u.)
17,AACCCTTCACGTAAAATTGTTACGCCACGTCATCTACATACGGAGTCACCTAGTGCAG,24500 fluorescence intensity (a.u.)
18,CATGTGACATGTTATTTTAGTATCCACGTGGCACGATATGCGGAGTCACCTAGTGCAG,17400 fluorescence intensity (a.u.)
19,CTTGCCAGGTCAGACTGTAAGCATAAAGAATCCAATCACGCGGAGTCACCTAGTGCAG,5160 fluorescence intensity (a.u.)
20,ATGCTGCAGCCGATAATGATTCTAAGCCGATGACGCCTTTCGGAGTCACCTAGTGCAG,4550 fluorescence intensity (a.u.)
21,GGGGAGGAGGAGGAGGAGGGTAGGGATGGGGAAGAGGAGTCGGAGTCACCTAGTGCAG,3650 fluorescence intensity (a.u.)
22,ATACATCTTGCTGTTGAATTTCTATCATAATCCCTGTACTCGGAGTCACCTAGTGCAG,31100 fluorescence intensity (a.u.)
23,CTTTGGTCCTCGCCCGCATGCCGCTGTCGCCACCGCTGTGCGGAGTCACCTAGTGCAG,3710 fluorescence intensity (a.u.)
24,TCTTCCTTGGCGACATCTTCCTAGCTGCCGCTCGGCCGCCCGGAGTCACCTAGTGCAG,4090 fluorescence intensity (a.u.)
25,GCCGGCGACGACAGGAGCAAGGTGGTGGTGGTGGGCGACGCGGAGTCACCTAGTGCAG,31100 fluorescence intensity (a.u.)
26,CGATAGCCTATCTTAGGAACCAGTTTTAATGACACTGCAACGGAGTCACCTAGTGCAG,4340 fluorescence intensity (a.u.)
27,CCTTATCCTCGTGAGCGTGACGTGCCCTCGTCGACGCGATCGGAGTCACCTAGTGCAG,6440 fluorescence intensity (a.u.)

row,Sequence,binding signal
1,CCCCGTCTTCTCATCACCAGCTCAGCTGTGGCCGGCCGCGCGGAGTCACCTAGTGCAG,3770 fluorescence intensity (a.u.)
2,GTTGCCCTCTCCTTCCCGGCGCGGCCACTCCGTCCGCCGCCGGAGTCACCTAGTGCAG,3290 fluorescence intensity (a.u.)
3,CACTCCCTTTCTCTTTCTCAGTGACTGTTCCACTGTCCTGCGGAGTCACCTAGTGCAG,3560 fluorescence intensity (a.u.)
4,TTCACTCAGAACAGCTTTGCTGAAGAATGCCAAGTATGTCCGGAGTCACCTAGTGCAG,3380 fluorescence intensity (a.u.)
5,AGTATGTTTCATTTGTCCCGGCCCCACGTATCAATGAAACCGGAGTCACCTAGTGCAG,3280 fluorescence intensity (a.u.)
6,CAAAATTAGGCCGCGTCCTCTTCTCCATTTTCCAGCTAGACGGAGTCACCTAGTGCAG,3300 fluorescence intensity (a.u.)
7,ACGCGGCCGACATGAAGAATTCTTTCACCTCCAAAGTACTCGGAGTCACCTAGTGCAG,29900 fluorescence intensity (a.u.)
8,CGATCCGATCCAACTCATCCGACCACGACGTCTCGTCCGGCGGAGTCACCTAGTGCAG,3580 fluorescence intensity (a.u.)
9,CATTATACATGTGTCATGTGTATTCGACTTCTGTGCTGCCCGGAGTCACCTAGTGCAG,4750 fluorescence intensity (a.u.)
10,GTGCAGCAATCATCTCGTCCACCTCACCTTACCCGAAACCCGGAGTCACCTAGTGCAG,7430 fluorescence intensity (a.u.)
11,GCAACGGATATCGTGCCACGTCGGTTGCCAAGTCAGCACACGGAGTCACCTAGTGCAG,26200 fluorescence intensity (a.u.)
12,CCCTGCGCCGCGTGACCGTCAACTGACGTGGCCCATCCCTCGGAGTCACCTAGTGCAG,16200 fluorescence intensity (a.u.)
13,CTTCCATATATCCTTGTCACAAGCTAGCTCACAAAACTTCCGGAGTCACCTAGTGCAG,4680 fluorescence intensity (a.u.)
14,ACCAAAGTTGGTACAAGTGTATAATCAGAATGGGAGAGCGCGGAGTCACCTAGTGCAG,21600 fluorescence intensity (a.u.)
15,AGTGGCAGGGGTGTGGGGATTGCCGGCTTGCCGCGGAGGACGGAGTCACCTAGTGCAG,3530 fluorescence intensity (a.u.)
16,ATCACGTGATTAAAACAGTAATTATCGAGCACGGAAGGAACGGAGTCACCTAGTGCAG,40600 fluorescence intensity (a.u.)
17,CTCATCTGTCATACACACTGCGTCTTAAATTCTGTGTTATCGGAGTCACCTAGTGCAG,3470 fluorescence intensity (a.u.)
18,GTACTGACAATAGATCCTTAACAGGGAGAGTTTAGAAATGCGGAGTCACCTAGTGCAG,26700 fluorescence intensity (a.u.)
19,CATGCTCCACGTCCTTATGTCTCTCCAGTTTTACTGTATCCGGAGTCACCTAGTGCAG,6750 fluorescence intensity (a.u.)
20,TATTGATTATGGTGTCATGTCTAGCTGATGGATGACTAATCGGAGTCACCTAGTGCAG,4500 fluorescence intensity (a.u.)
21,TTATAACCCATATTTCTGGGTGTGGCCTGCCACGTGTCACCGGAGTCACCTAGTGCAG,30100 fluorescence intensity (a.u.)
22,GGAGTATAATAAATACGAAATGAATGACATCAGAGAGTACCGGAGTCACCTAGTGCAG,3270 fluorescence intensity (a.u.)
23,CGGTCCTCCCCTCTCGCCACCACCACATCACGCCGCCGTTCGGAGTCACCTAGTGCAG,6760 fluorescence intensity (a.u.)
24,CCAACTTCCTGGAAGTTGCAGCCTTGCAGGTGACGCGGCTCGGAGTCACCTAGTGCAG,5180 fluorescence intensity (a.u.)
25,GTCCCCTGTTGCACTTAGATATTTAACTTTGTTAAGGATTCGGAGTCACCTAGTGCAG,4820 fluorescence intensity (a.u.)
26,TTTTCGATAGATGACGCTGTTGAATTTGGTACACATTTGACGGAGTCACCTAGTGCAG,3480 fluorescence intensity (a.u.)
27,TGTTTTAAAATTCTGTAGTGGTGACGGTGACTCCAACCCTCGGAGTCACCTAGTGCAG,5920 fluorescence intensity (a.u.)

# Another view of some results above.
row | Sequence | binding signal
15 | AGTGGCAGGGGTGTGGGGATTGCCGGCTTGCCGCGGAGGACGGAGTCACCTAGTGCAG | 3530 fluorescence intensity (a.u.)
16 | ATCACGTGATTAAAACAGTAATTATCGAGCACGGAAGGAACGGAGTCACCTAGTGCAG | 40600 fluorescence intensity (a.u.)
17 | CTCATCTGTCATACACACTGCGTCTTAAATTCTGTGTTATCGGAGTCACCTAGTGCAG | 3470 fluorescence intensity (a.u.)
18 | GTACTGACAATAGATCCTTAACAGGGAGAGTTTAGAAATGCGGAGTCACCTAGTGCAG | 26700 fluorescence intensity (a.u.)
